Consider one molecule from EPA's ToxValDB 9.5.

The series has as its system Rattus norvegicus. The following applies: chronic; duration: 2 years; oral; gavage; M/F; mortality.

As a reminder, the NOAEL is the highest dose or exposure tested at which no adverse effect was seen. Consider `CCCCCCCC1CCC(=O)O1` (stereo unspecified) [5-Heptyldihydro-2(3H)-furanone], for which the NOAEL worked out at 112 mg/kg-day.
